Test results from the supplement of paper PMC10849652.
This is one part of the list.

Amino acid sequences for entries named in this document (tags omitted). A change or cut given only in a name is not applied to a line headed by its entry.
UniProt P09972: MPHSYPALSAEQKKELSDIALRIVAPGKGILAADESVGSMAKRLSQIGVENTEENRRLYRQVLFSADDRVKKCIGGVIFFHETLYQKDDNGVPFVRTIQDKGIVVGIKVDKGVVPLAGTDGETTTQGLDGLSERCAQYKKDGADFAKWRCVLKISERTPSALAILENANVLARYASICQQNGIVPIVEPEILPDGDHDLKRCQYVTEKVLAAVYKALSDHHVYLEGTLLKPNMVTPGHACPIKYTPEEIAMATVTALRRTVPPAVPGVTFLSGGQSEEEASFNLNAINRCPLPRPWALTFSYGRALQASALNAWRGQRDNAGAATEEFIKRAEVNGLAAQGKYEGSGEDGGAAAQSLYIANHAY
UniProt Q9BRQ8: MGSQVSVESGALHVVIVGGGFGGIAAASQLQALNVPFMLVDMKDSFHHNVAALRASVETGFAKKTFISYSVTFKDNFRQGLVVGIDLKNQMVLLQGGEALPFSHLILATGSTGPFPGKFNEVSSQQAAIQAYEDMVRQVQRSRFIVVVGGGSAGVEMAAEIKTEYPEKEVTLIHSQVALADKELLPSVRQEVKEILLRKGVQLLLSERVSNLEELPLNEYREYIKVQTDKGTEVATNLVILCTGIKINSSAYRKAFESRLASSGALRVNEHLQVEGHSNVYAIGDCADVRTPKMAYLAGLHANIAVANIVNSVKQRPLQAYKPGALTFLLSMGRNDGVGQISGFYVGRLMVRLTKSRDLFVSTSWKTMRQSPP
UniProt Q13155: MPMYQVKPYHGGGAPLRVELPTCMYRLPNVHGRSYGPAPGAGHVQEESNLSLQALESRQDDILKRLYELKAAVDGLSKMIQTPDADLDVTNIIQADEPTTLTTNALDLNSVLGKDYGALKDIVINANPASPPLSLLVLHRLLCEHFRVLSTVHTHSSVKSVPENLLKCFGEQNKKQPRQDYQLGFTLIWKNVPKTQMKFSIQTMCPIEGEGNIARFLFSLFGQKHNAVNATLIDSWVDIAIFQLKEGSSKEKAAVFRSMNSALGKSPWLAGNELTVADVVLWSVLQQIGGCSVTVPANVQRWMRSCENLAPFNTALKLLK
UniProt Q53H80, whole entry, looked up: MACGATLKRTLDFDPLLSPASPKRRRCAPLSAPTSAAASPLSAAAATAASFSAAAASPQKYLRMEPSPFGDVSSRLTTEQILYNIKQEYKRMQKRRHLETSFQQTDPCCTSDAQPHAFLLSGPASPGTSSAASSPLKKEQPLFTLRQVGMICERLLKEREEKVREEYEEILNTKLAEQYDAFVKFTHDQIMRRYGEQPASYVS
UniProt Q3LIE5: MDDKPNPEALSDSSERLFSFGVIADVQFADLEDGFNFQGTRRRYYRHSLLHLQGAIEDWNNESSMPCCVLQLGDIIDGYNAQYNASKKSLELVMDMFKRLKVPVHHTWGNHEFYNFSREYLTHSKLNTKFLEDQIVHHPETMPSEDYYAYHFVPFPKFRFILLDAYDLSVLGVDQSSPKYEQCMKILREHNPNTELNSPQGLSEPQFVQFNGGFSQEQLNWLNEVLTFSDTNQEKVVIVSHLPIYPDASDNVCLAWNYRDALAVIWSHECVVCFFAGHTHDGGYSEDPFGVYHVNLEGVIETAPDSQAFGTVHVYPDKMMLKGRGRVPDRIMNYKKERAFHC
UniProt P13196: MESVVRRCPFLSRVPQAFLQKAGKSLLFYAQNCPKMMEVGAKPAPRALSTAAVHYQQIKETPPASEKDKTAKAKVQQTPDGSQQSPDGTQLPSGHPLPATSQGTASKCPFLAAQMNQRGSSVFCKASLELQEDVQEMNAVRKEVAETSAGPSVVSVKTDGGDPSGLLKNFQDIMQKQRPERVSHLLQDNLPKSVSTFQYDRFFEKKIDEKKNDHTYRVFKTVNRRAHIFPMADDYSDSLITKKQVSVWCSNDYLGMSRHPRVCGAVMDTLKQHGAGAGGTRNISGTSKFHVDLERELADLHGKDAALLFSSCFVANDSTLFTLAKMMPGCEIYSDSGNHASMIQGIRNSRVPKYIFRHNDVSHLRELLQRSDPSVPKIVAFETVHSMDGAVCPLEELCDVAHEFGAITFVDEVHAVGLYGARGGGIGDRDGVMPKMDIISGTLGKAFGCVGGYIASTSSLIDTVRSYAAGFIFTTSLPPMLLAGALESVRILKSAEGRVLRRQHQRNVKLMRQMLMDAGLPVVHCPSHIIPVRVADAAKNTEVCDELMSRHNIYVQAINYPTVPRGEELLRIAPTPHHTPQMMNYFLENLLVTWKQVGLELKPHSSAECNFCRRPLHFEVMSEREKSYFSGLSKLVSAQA
UniProt Q3KRA9: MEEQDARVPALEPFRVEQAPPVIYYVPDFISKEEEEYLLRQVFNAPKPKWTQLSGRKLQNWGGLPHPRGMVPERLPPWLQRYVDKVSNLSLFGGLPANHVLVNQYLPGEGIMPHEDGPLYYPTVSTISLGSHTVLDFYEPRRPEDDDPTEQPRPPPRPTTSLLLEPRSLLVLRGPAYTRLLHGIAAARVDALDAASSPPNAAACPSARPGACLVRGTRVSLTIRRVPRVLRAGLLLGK
UniProt P54922: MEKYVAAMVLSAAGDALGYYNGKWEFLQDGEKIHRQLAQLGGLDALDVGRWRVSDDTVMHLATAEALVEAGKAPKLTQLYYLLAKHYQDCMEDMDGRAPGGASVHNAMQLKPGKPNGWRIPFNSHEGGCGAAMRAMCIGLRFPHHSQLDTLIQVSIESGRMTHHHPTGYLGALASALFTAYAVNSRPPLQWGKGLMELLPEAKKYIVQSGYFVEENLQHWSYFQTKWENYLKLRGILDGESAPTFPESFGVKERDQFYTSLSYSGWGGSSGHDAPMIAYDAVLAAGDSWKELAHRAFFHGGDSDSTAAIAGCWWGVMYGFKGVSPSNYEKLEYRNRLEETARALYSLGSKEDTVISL
UniProt P04075: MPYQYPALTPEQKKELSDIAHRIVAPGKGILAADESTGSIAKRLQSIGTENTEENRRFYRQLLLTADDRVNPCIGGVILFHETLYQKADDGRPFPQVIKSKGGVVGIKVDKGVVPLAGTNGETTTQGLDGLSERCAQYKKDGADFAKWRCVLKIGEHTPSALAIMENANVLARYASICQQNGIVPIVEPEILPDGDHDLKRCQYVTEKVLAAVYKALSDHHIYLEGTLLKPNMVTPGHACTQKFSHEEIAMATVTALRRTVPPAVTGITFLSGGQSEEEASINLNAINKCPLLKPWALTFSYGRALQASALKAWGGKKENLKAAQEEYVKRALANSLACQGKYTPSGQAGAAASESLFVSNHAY
UniProt P51648: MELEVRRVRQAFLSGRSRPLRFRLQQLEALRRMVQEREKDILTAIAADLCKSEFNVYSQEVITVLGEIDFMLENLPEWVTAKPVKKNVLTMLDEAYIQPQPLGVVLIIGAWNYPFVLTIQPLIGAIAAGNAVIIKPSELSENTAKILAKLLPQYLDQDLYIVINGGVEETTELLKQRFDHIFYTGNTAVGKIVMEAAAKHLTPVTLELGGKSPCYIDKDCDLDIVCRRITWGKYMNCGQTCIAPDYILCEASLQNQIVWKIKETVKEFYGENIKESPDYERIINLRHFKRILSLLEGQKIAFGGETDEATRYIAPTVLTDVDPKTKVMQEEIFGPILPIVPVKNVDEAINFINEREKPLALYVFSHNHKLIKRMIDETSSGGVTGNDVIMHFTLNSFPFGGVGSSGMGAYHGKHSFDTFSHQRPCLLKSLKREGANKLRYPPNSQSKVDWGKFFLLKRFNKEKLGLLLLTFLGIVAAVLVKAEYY
UniProt Q96Q42: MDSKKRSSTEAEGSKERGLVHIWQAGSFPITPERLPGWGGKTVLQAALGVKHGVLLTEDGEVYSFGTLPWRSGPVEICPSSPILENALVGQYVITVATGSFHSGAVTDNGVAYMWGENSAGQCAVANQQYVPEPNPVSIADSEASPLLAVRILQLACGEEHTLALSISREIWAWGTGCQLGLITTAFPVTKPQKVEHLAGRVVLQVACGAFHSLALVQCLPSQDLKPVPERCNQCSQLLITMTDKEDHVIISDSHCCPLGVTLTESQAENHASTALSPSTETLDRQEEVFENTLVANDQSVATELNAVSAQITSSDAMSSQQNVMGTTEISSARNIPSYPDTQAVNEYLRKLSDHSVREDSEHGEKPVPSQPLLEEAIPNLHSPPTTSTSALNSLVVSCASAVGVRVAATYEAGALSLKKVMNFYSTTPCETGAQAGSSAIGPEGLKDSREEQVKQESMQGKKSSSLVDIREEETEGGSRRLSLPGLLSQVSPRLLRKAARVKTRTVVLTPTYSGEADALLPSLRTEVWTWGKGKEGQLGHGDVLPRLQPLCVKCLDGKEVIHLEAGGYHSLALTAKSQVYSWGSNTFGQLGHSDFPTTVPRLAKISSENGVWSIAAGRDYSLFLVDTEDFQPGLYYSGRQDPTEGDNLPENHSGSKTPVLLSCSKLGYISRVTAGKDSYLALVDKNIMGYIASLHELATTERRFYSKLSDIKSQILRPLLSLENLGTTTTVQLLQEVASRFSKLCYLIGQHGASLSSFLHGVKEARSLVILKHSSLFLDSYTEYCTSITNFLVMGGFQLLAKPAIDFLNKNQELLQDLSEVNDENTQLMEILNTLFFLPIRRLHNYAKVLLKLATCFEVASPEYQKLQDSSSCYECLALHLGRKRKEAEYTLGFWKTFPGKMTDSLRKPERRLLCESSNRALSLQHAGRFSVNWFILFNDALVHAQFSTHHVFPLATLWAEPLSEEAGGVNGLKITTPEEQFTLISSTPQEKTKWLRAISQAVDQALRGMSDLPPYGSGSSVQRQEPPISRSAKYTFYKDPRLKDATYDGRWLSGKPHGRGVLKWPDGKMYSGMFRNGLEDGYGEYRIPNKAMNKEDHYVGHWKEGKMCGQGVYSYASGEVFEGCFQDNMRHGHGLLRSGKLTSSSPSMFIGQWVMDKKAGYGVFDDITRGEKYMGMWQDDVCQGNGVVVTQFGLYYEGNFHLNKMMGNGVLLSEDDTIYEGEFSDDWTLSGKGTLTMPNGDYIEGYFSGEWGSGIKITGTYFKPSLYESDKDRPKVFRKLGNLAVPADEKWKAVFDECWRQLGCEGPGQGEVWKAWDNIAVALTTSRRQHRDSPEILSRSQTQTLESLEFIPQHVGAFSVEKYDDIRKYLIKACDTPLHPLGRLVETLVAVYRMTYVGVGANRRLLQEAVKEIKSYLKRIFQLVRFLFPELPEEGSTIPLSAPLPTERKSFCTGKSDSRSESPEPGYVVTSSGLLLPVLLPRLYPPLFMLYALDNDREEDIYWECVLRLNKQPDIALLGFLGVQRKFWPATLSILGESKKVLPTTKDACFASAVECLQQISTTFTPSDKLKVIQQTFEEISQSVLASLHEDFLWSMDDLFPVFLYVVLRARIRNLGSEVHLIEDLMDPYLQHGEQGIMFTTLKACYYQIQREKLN
UniProt Q9UHB7: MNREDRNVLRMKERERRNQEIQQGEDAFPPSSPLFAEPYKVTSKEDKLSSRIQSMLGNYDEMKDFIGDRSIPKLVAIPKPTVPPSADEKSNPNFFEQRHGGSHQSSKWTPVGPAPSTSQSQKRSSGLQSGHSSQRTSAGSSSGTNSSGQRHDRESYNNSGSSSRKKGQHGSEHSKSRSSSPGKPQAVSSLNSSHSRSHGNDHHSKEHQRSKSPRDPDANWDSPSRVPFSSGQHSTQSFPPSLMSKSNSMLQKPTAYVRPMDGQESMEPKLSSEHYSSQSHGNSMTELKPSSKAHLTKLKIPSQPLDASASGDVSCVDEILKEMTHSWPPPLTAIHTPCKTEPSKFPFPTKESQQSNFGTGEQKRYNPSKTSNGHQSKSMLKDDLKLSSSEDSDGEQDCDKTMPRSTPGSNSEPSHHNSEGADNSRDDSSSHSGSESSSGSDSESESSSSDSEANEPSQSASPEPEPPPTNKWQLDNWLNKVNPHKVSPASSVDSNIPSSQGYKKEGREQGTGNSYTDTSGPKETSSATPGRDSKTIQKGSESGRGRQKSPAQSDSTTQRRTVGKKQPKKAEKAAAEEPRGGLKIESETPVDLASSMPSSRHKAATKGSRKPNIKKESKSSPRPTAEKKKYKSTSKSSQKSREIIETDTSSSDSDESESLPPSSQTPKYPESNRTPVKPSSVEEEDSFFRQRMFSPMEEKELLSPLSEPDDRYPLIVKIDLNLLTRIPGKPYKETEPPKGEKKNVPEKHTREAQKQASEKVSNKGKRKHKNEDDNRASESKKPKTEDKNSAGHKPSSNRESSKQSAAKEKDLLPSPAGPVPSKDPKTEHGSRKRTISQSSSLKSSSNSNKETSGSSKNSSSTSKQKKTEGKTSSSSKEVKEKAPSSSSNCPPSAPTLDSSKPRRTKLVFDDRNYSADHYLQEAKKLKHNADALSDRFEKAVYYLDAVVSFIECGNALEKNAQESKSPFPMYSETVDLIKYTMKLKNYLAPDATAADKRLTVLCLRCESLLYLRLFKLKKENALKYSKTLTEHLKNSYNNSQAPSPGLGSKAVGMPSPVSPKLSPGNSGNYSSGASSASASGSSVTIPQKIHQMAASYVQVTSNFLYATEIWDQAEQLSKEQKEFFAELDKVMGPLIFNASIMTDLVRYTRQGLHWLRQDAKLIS

Columns and labels:
Assay in all cases: log2 fold change, soluble protein after heating vs DMSO (PISA); higher = thermal stabilisation; K562 cells, 10 uM, 30 min; active = over 0.2 and 3.5 SD of the protein, either way, in both replicates (recomputed)
erlotinib = compound: C#Cc1cccc(Nc2ncnc3cc(OCCOC)c(OCCOC)cc23)c1 [erlotinib]
In short: (§1)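 Quantification of soluble protein used TMTpro 16plex LC-MS/MS, with channel sums equalised. Samples were the supernatant after 21,000xg for 90 min of pooled aliquots from K562 cells (2×10^6 cells/mL) treated with 10 μM compound for 30 min, heated for 3 min over 48°C-58°C, and extracted in PBS with 0.5% NP-40 at 4°C. Values, from duplicates, describe thermal stability against control samples on a log2 fold-change scale.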

[1] = compound: C/C(=N\NC(=O)C1=CC(=CC=C1)S(=O)(=O)N2CCOCC2)/C3=C(C=CC(=C3)Cl)O
In short: as §1

[2] = compound: C1=CC(=C(C=C1Cl)C2=NC3=NC=CN=C3C(=N2)NC4=CC=NC=C4)F
In short: as §1

[3] = compound: C1=CC(=CC=C1C2=NC3=C(N2)C=C(C=C3)C(=O)N)OC4=CC=C(C=C4)Cl
In short: as §1

[4] = compound: C1=CC2=C(C=CC(=C2)/C=C\3/C(=O)NC(=NCC4=CC=CS4)S3)N=C1
In short: as §1

[5] = compound: C1=CC2=NC=CN=C2C=C1/C=C/3\C(=O)NC(=O)S3
In short: as §1

[6] = compound: C1=CC=C(C=C1)C2=NC(=C(N2)C3=CC=NC=C3)C4=CC(=C(C=C4)Cl)O
In short: as §1

[7] = compound: C1=CC=C2C(=C1)C3=NNC4=CC=CC(=C43)C2=O
In short: as §1

[8] = compound: C1CCN(C1)C(=O)NC2=CC=CC(=C2)NC3=NC=C(C(=N3)NCCC4=CN=CN4)Br
In short: as §1

[9] = compound: C1CN(CCC1(CC2=CC=C(C=C2)Cl)N)C3=NC=NC4=C3C=CN4
In short: as §1

Measured: log2 fold change

AMDHD2 isoform 3 (UniProt Q9Y303)
inactive: erlotinib 0.063 | [1] 0.008 | [2] -0.023 | [3] 0.011 | [4] 0.094 | [5] 0.051 | [6] 0.018 | [7] -0.008 | [8] -0.056 | [9] 0.054

ALDOC (UniProt P09972)
inactive: erlotinib 0.011 | [1] -0.022 | [2] 0.012 | [3] -0.03 | [4] 0.023 | [5] -0.017 | [6] -0.02 | [7] -0.014 | [8] -0.022 | [9] 0.044

ALDH9A1 isoform 3 (UniProt P49189)
inactive: erlotinib -0.025 | [1] 0.016 | [2] 0.043 | [3] 0.027 | [4] -0.004 | [5] 0.003 | [6] 0.037 | [7] -0.007 | [8] -0.018 | [9] 0.051

AGPAT1 (UniProt Q99943)
inactive: erlotinib 0.04 | [1] -0.004 | [2] 0.008 | [3] -0.014 | [4] 0.013 | [5] 0.029 | [6] -0.015 | [7] -0.001 | [8] 0.001 | [9] 0.048

ALG11 (UniProt Q2TAA5)
inactive: erlotinib -0.015 | [1] 0.042 | [2] 0.075 | [3] 0.013 | [4] 0.074 | [5] 0.054 | [6] 0.009 | [7] -0.048 | [8] -0.045 | [9] -0.014

AHNAK (UniProt Q09666)
inactive: erlotinib -0.022 | [1] -0.037 | [2] -0.029 | [3] 0 | [4] -0.014 | [5] 0.034 | [6] -0.046 | [7] -0.088 | [8] -0.003 | [9] 0.02

ADSS2 (UniProt P30520)
inactive: erlotinib -0.016 | [1] 0.03 | [2] 0.021 | [3] 0.015 | [4] 0.046 | [5] 0.008 | [6] -0.029 | [7] 0.019 | [8] -0.006 | [9] 0.031

Reprinted at random: 3 entries already listed.
AHNAK (UniProt Q09666)
inactive: erlotinib -0.022 | [1] -0.037 | [2] -0.029 | [3] 0 | [4] -0.014 | [5] 0.034 | [6] -0.046 | [7] -0.088 | [8] -0.003 | [9] 0.02

ADSS2 (UniProt P30520)
inactive: erlotinib -0.016 | [1] 0.03 | [2] 0.021 | [3] 0.015 | [4] 0.046 | [5] 0.008 | [6] -0.029 | [7] 0.019 | [8] -0.006 | [9] 0.031

ALDH9A1 isoform 3 (UniProt P49189)
inactive: erlotinib -0.025 | [1] 0.016 | [2] 0.043 | [3] 0.027 | [4] -0.004 | [5] 0.003 | [6] 0.037 | [7] -0.007 | [8] -0.018 | [9] 0.051

Later entries.

ALG8 (UniProt Q9BVK2)
inactive: erlotinib -0.019 | [1] 0.067 | [2] -0.006 | [3] 0.043 | [4] 0.104 | [5] 0.025 | [6] 0.144 | [7] 0.024 | [8] 0.027 | [9] 0.017

ALAD isoform 2 (UniProt P13716)
inactive: erlotinib -0.023 | [1] 0.06 | [2] 0.026 | [3] 0.037 | [4] -0.03 | [5] 0.004 | [6] 0.034 | [7] 0.052 | [8] -0.017 | [9] 0.015

AIFM2 (UniProt Q9BRQ8)
inactive: erlotinib -0.038 | [1] 0.045 | [2] -0.001 | [3] 0.064 | [4] -0.025 | [5] -0.032 | [6] 0.041 | [7] 0.172 | [8] -0.045 | [9] 0.064

AFF1 isoform 2 (UniProt P51825)
inactive: erlotinib -0.048 | [1] 0.13 | [2] 0.001 | [3] -0.042 | [4] -0.001 | [5] -0.156 | [7] 0.127

AMMECR1 (UniProt Q9Y4X0)
inactive: erlotinib -0.051 | [1] -0.144 | [2] -0.006 | [3] 0.146 | [4] -0.021 | [6] 0.324 | [7] 0.015

ALMS1 (UniProt Q8TCU4)
inactive: erlotinib 0.505 | [3] -0.001 | [5] 0.003

AGA (UniProt P20933)
inactive: erlotinib -0.04 | [3] 0.1 | [5] 0.028

AIMP2 (UniProt Q13155)
inactive: erlotinib -0.087 | [1] -0.091 | [2] -0.364 | [3] 0.02 | [4] -0.01 | [5] 0.001 | [6] -0.027 | [7] 0.026 | [8] 0.069 | [9] -0.259

AKIRIN2 (UniProt Q53H80)
inactive: erlotinib -0.048 | [1] 0.2 | [2] -0.362 | [3] 0.017 | [4] 0.133 | [6] 0.017 | [7] -0.018 | [8] -0.213 | [9] -0.141

ADPRM (UniProt Q3LIE5)
inactive: erlotinib -0.015 | [3] 0.011 | [5] 0.054

AMN1 (UniProt Q8IY45)
inactive: erlotinib 0.107 | [1] -0.006 | [2] -0.029 | [3] -0.252 | [4] 0.044 | [5] 0.072 | [7] 0.094 | [8] 0.156 | [9] -0.098

ALAS1 (UniProt P13196)
inactive: erlotinib -0.107 | [1] -0.211 | [2] 0.072 | [3] -0.024 | [4] 0.334 | [5] -0.029 | [7] 0.382

ALG6 (UniProt Q9Y672)
inactive: erlotinib -0.006 | [1] 0.004 | [2] -0.011 | [3] 0.06 | [4] 0.07 | [5] 0.016 | [7] -0.07 | [8] -0.052 | [9] 0.175

ALKBH6 isoform 2 (UniProt Q3KRA9)
inactive: erlotinib -0.098 | [1] 0.023 | [2] -0.018 | [3] 0.058 | [4] 0.037 | [5] 0.007 | [6] -0.049 | [7] -0.038 | [8] -0.046 | [9] 0.151

ADPRH (UniProt P54922)
inactive: erlotinib -0.021 | [2] -0.047 | [3] -0.047 | [5] 0.008 | [6] -0.011 | [8] 0.141 | [9] -0.065

ALDOA (UniProt P04075)
inactive: erlotinib 0.088 | [1] -0.096 | [3] 0.096 | [4] 0.069 | [5] 0.152 | [6] -0.203 | [7] -0.094 | [8] -0.047 | [9] 0.093

AK2 isoform 2 (UniProt P54819)
inactive: erlotinib 0.019 | [1] -0.035 | [2] 0.023 | [3] 0.003 | [4] -0.007 | [5] 0.019 | [6] -0.045 | [7] 0.015 | [8] 0.025 | [9] 0.042

AGGF1 (UniProt Q8N302)
inactive: erlotinib 0.33 | [3] -0.196 | [5] -0.066

ALDH3A2 isoform 2 (UniProt P51648)
inactive: erlotinib 0.028 | [3] 0.059 | [5] 0.019

ADIPOR1 (UniProt Q96A54)
inactive: erlotinib 0.093 | [2] -0.086 | [3] -0.1 | [5] 0.051 | [6] 0.081

AKNA (UniProt Q7Z591)
inactive: erlotinib -0.147 | [3] 0.195

ALS2 (UniProt Q96Q42)
inactive: erlotinib 0.02 | [2] 0.05 | [3] -0.162 | [6] -0.206 | [8] 0.021 | [9] 0.007

AKR1B1 (UniProt P15121)
inactive: erlotinib 0.075 | [1] 0.006 | [2] 0.062 | [3] 0.022 | [4] 0.016 | [5] 0.022 | [6] -0.01 | [7] -0.057 | [8] -0.016 | [9] 0.044

AFF4 (UniProt Q9UHB7)
inactive: erlotinib -0.124 | [1] 0.213 | [2] -0.158 | [3] 0.078 | [4] -0.037 | [5] -0.028 | [7] -0.028

AHSA1 (UniProt O95433)
inactive: erlotinib 0.007 | [1] 0.011 | [2] 0.081 | [3] -0.015 | [4] 0.012 | [5] 0.037 | [6] 0.013 | [7] 0.039 | [8] -0.006 | [9] 0.023

AEBP2 (UniProt Q6ZN18)
inactive: erlotinib 0.305 | [2] 0.072 | [3] -0.322 | [5] 0.092

ADIPOR2 (UniProt Q86V24)
inactive: erlotinib 0.107 | [1] 0.063 | [3] 0.049 | [4] 0.076 | [5] 0.045 | [7] -0.161 | [8] 0 | [9] 0.004
